Test results: the M2OR odorant receptor database
This is a selection; strong and weak results do not stand in their true shares. Calls are pooled over several reports, among them a noisy single-well screen. This is one part of the list.

Amino acid sequences for entries named in this document (tags omitted). A change or cut given only in a name is not applied to a line headed by its entry.
UniProt B2RN74: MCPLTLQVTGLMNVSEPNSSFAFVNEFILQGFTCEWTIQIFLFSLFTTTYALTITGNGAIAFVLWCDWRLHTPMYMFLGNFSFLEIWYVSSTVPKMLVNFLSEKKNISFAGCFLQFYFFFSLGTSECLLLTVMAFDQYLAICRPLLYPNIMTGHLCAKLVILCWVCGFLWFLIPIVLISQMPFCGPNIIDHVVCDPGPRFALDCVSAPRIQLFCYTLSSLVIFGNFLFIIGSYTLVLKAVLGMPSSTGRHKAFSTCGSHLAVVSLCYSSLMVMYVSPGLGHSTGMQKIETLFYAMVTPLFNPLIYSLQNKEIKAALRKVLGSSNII

Tests used:
Conditions in all cases: stereoisomer not certain
OR10K1 (Homo sapiens) = biological target: T1, OR10K1 (Homo sapiens) (UniProt Q8NGX5)
T1 sequence (whole entry): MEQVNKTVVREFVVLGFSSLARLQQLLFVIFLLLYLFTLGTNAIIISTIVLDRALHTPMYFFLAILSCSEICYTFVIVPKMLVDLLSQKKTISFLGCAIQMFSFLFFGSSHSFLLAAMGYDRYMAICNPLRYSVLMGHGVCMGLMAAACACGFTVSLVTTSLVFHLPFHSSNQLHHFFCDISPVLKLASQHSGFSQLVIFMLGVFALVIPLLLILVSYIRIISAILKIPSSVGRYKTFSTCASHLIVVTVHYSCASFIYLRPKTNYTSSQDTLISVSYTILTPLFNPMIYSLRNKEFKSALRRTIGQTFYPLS
In short: (§1)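 Whether a receptor–molecule pair is responsive (active) rests on the original authors' judgment that its measured signal was statistically different from baseline. Pairs without that judgment are non-responsive (inactive). Sources used varied assay methods, commonly transient luciferase assays in mammalian cell lines.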

OR10K2 (Homo sapiens) = biological target: T2, OR10K2 (Homo sapiens) (UniProt Q6IF99)
T2 sequence (whole entry): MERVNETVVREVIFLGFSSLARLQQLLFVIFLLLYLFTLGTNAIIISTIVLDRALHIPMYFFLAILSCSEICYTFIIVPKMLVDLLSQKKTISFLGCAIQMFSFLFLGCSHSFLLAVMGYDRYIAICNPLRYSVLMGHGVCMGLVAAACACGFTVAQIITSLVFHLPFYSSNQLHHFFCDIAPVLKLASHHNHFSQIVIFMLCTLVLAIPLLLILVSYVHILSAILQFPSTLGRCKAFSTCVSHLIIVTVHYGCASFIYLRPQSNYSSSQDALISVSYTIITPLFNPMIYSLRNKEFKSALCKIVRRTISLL
In short: as §1

OR10T2 (Homo sapiens) = biological target: T3, OR10T2 (Homo sapiens) (UniProt Q8NGX3)
T3 sequence (whole entry): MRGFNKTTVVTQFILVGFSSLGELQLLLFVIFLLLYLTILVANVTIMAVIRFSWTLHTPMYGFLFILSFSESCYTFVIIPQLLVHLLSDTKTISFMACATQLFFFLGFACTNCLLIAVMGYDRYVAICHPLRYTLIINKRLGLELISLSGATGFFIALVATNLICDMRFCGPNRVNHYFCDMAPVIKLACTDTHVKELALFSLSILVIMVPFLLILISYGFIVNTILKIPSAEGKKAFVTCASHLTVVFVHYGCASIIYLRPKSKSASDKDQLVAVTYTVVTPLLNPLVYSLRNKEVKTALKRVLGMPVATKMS
In short: as §1

OR10X1 (Homo sapiens) = biological target: T4, OR10X1 (Homo sapiens) (UniProt Q8NGY0)
T4 sequence (whole entry): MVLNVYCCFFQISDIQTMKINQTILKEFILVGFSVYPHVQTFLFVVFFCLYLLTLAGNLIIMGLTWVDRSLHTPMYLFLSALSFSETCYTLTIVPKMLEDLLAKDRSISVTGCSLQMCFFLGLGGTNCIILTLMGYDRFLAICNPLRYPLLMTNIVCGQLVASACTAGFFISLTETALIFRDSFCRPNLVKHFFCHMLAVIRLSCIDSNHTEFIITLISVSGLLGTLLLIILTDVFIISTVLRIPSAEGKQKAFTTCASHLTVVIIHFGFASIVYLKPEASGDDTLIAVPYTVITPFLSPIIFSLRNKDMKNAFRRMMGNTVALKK
In short: as §1

OR10Z1 (Homo sapiens) = biological target: T5, OR10Z1 (Homo sapiens) (UniProt Q8NGY1)
T5 sequence (whole entry): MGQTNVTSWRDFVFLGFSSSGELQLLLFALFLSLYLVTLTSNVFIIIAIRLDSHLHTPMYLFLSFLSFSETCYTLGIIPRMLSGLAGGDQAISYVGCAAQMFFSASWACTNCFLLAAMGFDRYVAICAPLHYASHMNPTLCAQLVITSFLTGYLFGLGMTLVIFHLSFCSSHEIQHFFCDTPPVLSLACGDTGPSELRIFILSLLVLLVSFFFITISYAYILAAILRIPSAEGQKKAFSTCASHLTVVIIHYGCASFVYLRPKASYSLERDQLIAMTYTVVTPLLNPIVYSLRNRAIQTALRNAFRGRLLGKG
In short: as §1

OR11A1 (Homo sapiens) = biological target: T6, OR11A1 (Homo sapiens) (UniProt Q9GZK7)
T6 sequence (whole entry): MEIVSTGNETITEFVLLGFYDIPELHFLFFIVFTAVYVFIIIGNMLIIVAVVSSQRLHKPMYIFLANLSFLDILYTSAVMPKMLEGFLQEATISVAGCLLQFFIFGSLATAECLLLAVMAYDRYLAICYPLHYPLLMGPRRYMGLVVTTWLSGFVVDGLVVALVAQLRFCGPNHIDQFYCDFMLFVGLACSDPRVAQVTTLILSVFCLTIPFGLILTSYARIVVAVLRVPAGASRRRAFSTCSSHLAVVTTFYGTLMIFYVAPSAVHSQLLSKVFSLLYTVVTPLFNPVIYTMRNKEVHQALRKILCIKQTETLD
In short: as §1

OR11H12 (Homo sapiens) = OR11H12 (Homo sapiens) (UniProt B2RN74)
In short: as §1

OR11H4 (Homo sapiens) = biological target: T7, OR11H4 (Homo sapiens) (UniProt Q8NGC9)
T7 sequence (whole entry): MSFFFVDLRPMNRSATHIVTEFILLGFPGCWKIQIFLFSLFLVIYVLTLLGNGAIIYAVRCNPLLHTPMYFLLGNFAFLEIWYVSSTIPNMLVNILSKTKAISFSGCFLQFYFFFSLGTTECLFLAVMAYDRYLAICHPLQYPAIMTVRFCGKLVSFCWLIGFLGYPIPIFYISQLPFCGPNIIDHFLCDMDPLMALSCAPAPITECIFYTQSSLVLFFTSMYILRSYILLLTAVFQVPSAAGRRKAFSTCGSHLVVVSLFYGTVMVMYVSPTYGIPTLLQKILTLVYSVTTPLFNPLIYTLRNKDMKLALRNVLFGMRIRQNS
In short: as §1

OR11H6 (Homo sapiens) = biological target: T8, OR11H6 (Homo sapiens) (UniProt Q8NGC7)
T8 sequence (whole entry): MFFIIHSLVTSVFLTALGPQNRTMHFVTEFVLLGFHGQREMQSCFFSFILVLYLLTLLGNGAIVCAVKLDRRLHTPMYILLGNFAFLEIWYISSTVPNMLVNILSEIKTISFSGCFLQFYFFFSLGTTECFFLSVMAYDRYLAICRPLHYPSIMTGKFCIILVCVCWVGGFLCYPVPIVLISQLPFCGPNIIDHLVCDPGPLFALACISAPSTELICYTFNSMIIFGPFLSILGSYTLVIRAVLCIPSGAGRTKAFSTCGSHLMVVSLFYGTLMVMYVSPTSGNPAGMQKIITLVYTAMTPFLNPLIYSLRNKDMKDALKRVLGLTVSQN
In short: as §1

OR12D2 (Homo sapiens) = biological target: T9, OR12D2 (Homo sapiens) (UniProt P58182)
T9 sequence (whole entry): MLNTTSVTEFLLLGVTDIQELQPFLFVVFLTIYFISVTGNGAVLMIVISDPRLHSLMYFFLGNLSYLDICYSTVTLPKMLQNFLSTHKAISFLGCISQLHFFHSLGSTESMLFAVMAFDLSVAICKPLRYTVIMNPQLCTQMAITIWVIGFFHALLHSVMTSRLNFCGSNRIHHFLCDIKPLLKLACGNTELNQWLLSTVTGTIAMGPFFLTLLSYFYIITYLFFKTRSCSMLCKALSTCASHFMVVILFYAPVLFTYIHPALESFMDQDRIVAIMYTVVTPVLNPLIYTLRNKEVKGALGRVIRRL
In short: as §1

OR12D3 (Homo sapiens) = biological target: T10, OR12D3 (Homo sapiens) (UniProt Q9UGF7)
T10 sequence (whole entry): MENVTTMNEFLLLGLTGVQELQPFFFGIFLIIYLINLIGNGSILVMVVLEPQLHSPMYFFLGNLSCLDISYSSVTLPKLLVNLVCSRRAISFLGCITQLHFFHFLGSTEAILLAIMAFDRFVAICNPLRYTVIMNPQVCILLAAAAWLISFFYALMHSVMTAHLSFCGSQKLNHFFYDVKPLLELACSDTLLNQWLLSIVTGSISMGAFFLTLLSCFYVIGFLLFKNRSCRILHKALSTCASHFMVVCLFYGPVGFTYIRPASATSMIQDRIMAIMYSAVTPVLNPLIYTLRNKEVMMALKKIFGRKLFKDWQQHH
In short: as §1

OR13A1 (Homo sapiens) = biological target: T11, OR13A1 (Homo sapiens) (UniProt Q8NGR1)
T11 sequence (whole entry): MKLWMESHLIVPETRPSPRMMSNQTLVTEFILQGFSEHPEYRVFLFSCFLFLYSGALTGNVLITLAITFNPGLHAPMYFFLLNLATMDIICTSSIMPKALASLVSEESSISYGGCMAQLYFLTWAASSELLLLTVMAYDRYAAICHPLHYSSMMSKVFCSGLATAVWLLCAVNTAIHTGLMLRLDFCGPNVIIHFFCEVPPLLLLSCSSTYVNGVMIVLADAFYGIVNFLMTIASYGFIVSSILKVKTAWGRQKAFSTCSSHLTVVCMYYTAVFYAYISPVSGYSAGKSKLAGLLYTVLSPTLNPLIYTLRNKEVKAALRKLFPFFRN
In short: as §1

OR10S1 (Homo sapiens) = biological target: T12, OR10S1 (Homo sapiens) (UniProt Q8NGN2)
T12 sequence (whole entry): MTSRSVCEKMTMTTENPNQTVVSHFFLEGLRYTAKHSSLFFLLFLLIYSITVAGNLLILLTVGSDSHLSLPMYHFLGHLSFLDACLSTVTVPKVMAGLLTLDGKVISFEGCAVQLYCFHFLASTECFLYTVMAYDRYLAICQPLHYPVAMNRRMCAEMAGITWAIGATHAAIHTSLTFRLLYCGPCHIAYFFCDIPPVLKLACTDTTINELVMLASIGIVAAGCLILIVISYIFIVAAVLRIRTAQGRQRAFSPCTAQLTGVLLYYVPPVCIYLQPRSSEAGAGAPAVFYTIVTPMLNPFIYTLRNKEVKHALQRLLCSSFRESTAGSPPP
In short: as §1

Measured: odorant receptor agonist call

CC(=O)c1ccccc1
active: OR11H12 (Homo sapiens)
not listed: OR10S1 (Homo sapiens)
inactive: all other assays above

O=C1CCCCCCCCCCCC(=O)OCCO1
not listed: OR11H12 (Homo sapiens) | OR10S1 (Homo sapiens)
inactive: all other assays above

C=CC(C)(O)CCC=C(C)C (stereo unspecified)
not listed: OR11H12 (Homo sapiens)
inactive: all other assays above

CCCC(=O)O
not listed: OR11H12 (Homo sapiens)
inactive: all other assays above

c1cnccn1
not listed: OR11H12 (Homo sapiens) | OR10S1 (Homo sapiens)
inactive: all other assays above

COC(=O)c1ccccc1O
not listed: OR11H12 (Homo sapiens) | OR10S1 (Homo sapiens)
inactive: all other assays above

CCCCO
not listed: OR11H12 (Homo sapiens)
inactive: all other assays above

CCC=CCCO
not listed: OR11H12 (Homo sapiens) | OR10S1 (Homo sapiens)
inactive: all other assays above

CCCCCCCOC(C)=O
not listed: OR11H12 (Homo sapiens) | OR10S1 (Homo sapiens)
inactive: all other assays above

CC(=O)OCC=C(C)CCC=C(C)C
not listed: OR11H12 (Homo sapiens) | OR10S1 (Homo sapiens)
inactive: all other assays above

CC(C)C(=O)O
not listed: OR11H12 (Homo sapiens) | OR10S1 (Homo sapiens)
inactive: all other assays above

CC(C)=CCCC(C)=CC=O
not listed: OR11H12 (Homo sapiens) | OR10S1 (Homo sapiens)
inactive: all other assays above
